Reference: PubChem BioAssay AID1224830 (NIAID, 2016)

- Test: 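Host factors that control LPS-induced TNF expression in human macrophages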 (primary screen)
- Cell system: human THP-1 monocytic leukaemia cells, TNF dual-luciferase reporter clone, PMA-differentiated to macrophage-like cells
- Reagent: siRNA pool against human genes, 50 nM
- Duration: LPS for 4 h, given about 3 days after siRNA transfection
- Treatment: bacterial LPS (TLR4 ligand), 10 ng/ml
- Detection: 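TNF firefly reporter luminescence divided by renilla, normalised to the plate median, then turned into a robust z-score for each replicate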
- Direction: TNF reporter robust z-score: higher = stronger TNF reporter response to LPS
- Call rule: 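a well is active when its z-score exceeds 2.8 or falls below -1.5; control wells carry no call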
Shown is a random part of about 18,000 deposited reagents. Over the whole deposit, about 2,900 (16%) are marked active. 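Calls are made per well; low scores hint the gene aids the LPS response, high scores that it dampens it.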 Entries without a mark were called inactive. Repeated entries: four replicate wells of each siRNA pool.

With knock-down of CXorf58 (chromosome X open reading frame 58), the screen gave TNF reporter robust z-score -0.78. CXorf58 (chromosome X open reading frame 58) showed TNF reporter robust z-score -0.76. After knock-down of CXorf58 (chromosome X open reading frame 58), the screen gave TNF reporter robust z-score -1.33. With knock-down of CXorf58 (chromosome X open reading frame 58), the record shows TNF reporter robust z-score -1.04. Depletion of ITPRIPL2 (ITPRIP like 2) gave: TNF reporter robust z-score 0.23. Knock-down of ITPRIPL2 (ITPRIP like 2) came out at: TNF reporter robust z-score 1.34.

After knock-down of ITPRIPL2 (ITPRIP like 2), the screen gave TNF reporter robust z-score 0.37. With knock-down of ITPRIPL2 (ITPRIP like 2), the screen gave TNF reporter robust z-score 1.65. ZNF117 (zinc finger protein 117) showed TNF reporter robust z-score -1.08. Depletion of ZNF117 (zinc finger protein 117) resulted in: TNF reporter robust z-score -0.6. Against ZNF117 (zinc finger protein 117), the entry reads TNF reporter robust z-score -0.77. With knock-down of ZNF117 (zinc finger protein 117), the record shows TNF reporter robust z-score 0.19.

With knock-down of LY6G5B (lymphocyte antigen 6 family member G5B) the results were TNF reporter robust z-score -0.29. Depletion of LY6G5B (lymphocyte antigen 6 family member G5B) resulted in: TNF reporter robust z-score 0.58. LY6G5B (lymphocyte antigen 6 family member G5B) scored TNF reporter robust z-score 1.57. Silencing of LY6G5B (lymphocyte antigen 6 family member G5B) resulted in: TNF reporter robust z-score -0.02. EIF3A (eukaryotic translation initiation factor 3 subunit A) gave TNF reporter robust z-score -0.99. With knock-down of EIF3A (eukaryotic translation initiation factor 3 subunit A), the screen gave TNF reporter robust z-score -1.44.

EIF3A (eukaryotic translation initiation factor 3 subunit A) showed TNF reporter robust z-score -1.45. For EIF3A (eukaryotic translation initiation factor 3 subunit A) the deposit lists TNF reporter robust z-score -1.48. DIPK1B (divergent protein kinase domain 1B) showed TNF reporter robust z-score -1.92 (active). DIPK1B (divergent protein kinase domain 1B) showed TNF reporter robust z-score -1.38.

In a second layout: 6 of the entries above
{"Target gene":"CXorf58 (chromosome X open reading frame 58)","TNF reporter robust z-score":-0.78}
{"Target gene":"CXorf58 (chromosome X open reading frame 58)","TNF reporter robust z-score":-0.76}
{"Target gene":"CXorf58 (chromosome X open reading frame 58)","TNF reporter robust z-score":-1.33}
{"Target gene":"CXorf58 (chromosome X open reading frame 58)","TNF reporter robust z-score":-1.04}
{"Target gene":"ITPRIPL2 (ITPRIP like 2)","TNF reporter robust z-score":0.23}
{"Target gene":"ITPRIPL2 (ITPRIP like 2)","TNF reporter robust z-score":1.34}

Next results:
For IRX2 (iroquois homeobox 2), the entry reads TNF reporter robust z-score -0.36. Silencing of IRX2 (iroquois homeobox 2) resulted in: TNF reporter robust z-score -0.94. Depletion of IRX2 (iroquois homeobox 2) gave: TNF reporter robust z-score -1.27. Against IRX2 (iroquois homeobox 2), the values are TNF reporter robust z-score 0.41. With knock-down of PHF5A (PHD finger protein 5A), the record shows TNF reporter robust z-score -2.05 (active). PHF5A (PHD finger protein 5A) gave TNF reporter robust z-score -1.6 (active).

With knock-down of PHF5A (PHD finger protein 5A), the record shows TNF reporter robust z-score -1.89 (active). PHF5A (PHD finger protein 5A) gave TNF reporter robust z-score -0.59. HES4 (hes family bHLH transcription factor 4) scored TNF reporter robust z-score -0.36. Knock-down of HES4 (hes family bHLH transcription factor 4) gave: TNF reporter robust z-score 0.13. With knock-down of HES4 (hes family bHLH transcription factor 4) the results were TNF reporter robust z-score 0.15. HES4 (hes family bHLH transcription factor 4) gave TNF reporter robust z-score 0.1.

Knock-down of RAD18 (RAD18 E3 ubiquitin protein ligase) came out at: TNF reporter robust z-score 0.28. Against RAD18 (RAD18 E3 ubiquitin protein ligase) the deposit lists TNF reporter robust z-score 0.91. Against RAD18 (RAD18 E3 ubiquitin protein ligase) the deposit lists TNF reporter robust z-score -0.08. RAD18 (RAD18 E3 ubiquitin protein ligase) showed TNF reporter robust z-score 0.16. DHRS1 (dehydrogenase/reductase 1) showed TNF reporter robust z-score 0.34. With knock-down of DHRS1 (dehydrogenase/reductase 1), the screen gave TNF reporter robust z-score 0.96.

Against DHRS1 (dehydrogenase/reductase 1), the entry reads TNF reporter robust z-score 0.68. Knock-down of DHRS1 (dehydrogenase/reductase 1) came out at: TNF reporter robust z-score 4 (active). GPR179 (G protein-coupled receptor 179) gave TNF reporter robust z-score 1.49. For GPR179 (G protein-coupled receptor 179) the deposit lists TNF reporter robust z-score 5.22 (active). After knock-down of GPR179 (G protein-coupled receptor 179), the screen gave TNF reporter robust z-score -0.38. Knock-down of GPR179 (G protein-coupled receptor 179) gave: TNF reporter robust z-score 0.16.

After knock-down of HERC4 (HECT and RLD domain containing E3 ubiquitin protein ligase 4), the record shows TNF reporter robust z-score -1.53 (active). Knock-down of HERC4 (HECT and RLD domain containing E3 ubiquitin protein ligase 4) resulted in: TNF reporter robust z-score -0.58. With knock-down of HERC4 (HECT and RLD domain containing E3 ubiquitin protein ligase 4), the screen gave TNF reporter robust z-score -0.83. HERC4 (HECT and RLD domain containing E3 ubiquitin protein ligase 4) scored TNF reporter robust z-score -0.41.
